Earlier results on one compound are cited in publication PMC5225183, “Fingerprinting of neurotoxic compounds using a mouse embryonic stem cell dual luminescence reporter assay” (Archives of Toxicology, 2016).

Read-outs that look alike come from different tables or passages of the source. Marks after values point to notes of the source that are not given here.

The conditions of data set [1]: Table S1, three classes; ref per compound in the footnotes of Table S1; cited from earlier work.
The conditions of data set [2]: ref Zimmer et al. ([2014]), cited from earlier work.

Regarding `CCCCc1oc2ccccc2c1C(=O)c1cc(I)c(OCCN(CC)CC)c(I)c1` [Amiodarone], in data set [1], the “class based on clinical evidence for neurotoxicity” value was “Possibly (developmental)”. Further, the values for the Concentration in humans in data set [2] and in data set [2] (listed as amiodarone) were 2.3^k µM and 2 to 3 µM, respectively.
